Results are given in words; binding and its absence hold for the method and conditions named. In cells and extracts the contact can be indirect. A result given as binding can be weak or reduced; the word gives no strength.
Target: Skp2^AA (RxxL motif in D-box I mutated to AxxA) (UniProt Q13309)
Experiment: co-IP; exogenous co-immunoprecipitation from HEK 293T cells transfected 48 h; IP buffer 250 mM NaCl, 50 mM Tris, 0.5 mM EDTA, 0.5% NP-40; indicated antibody and protein A-agarose overnight at 4 °C; RCC1 detected by anti-flag (M2), Skp2 by anti-myc

Amino acid sequences for entries named in this document (tags omitted). A change or cut given only in a name is not applied to a line headed by its entry.
UniProt Q13309: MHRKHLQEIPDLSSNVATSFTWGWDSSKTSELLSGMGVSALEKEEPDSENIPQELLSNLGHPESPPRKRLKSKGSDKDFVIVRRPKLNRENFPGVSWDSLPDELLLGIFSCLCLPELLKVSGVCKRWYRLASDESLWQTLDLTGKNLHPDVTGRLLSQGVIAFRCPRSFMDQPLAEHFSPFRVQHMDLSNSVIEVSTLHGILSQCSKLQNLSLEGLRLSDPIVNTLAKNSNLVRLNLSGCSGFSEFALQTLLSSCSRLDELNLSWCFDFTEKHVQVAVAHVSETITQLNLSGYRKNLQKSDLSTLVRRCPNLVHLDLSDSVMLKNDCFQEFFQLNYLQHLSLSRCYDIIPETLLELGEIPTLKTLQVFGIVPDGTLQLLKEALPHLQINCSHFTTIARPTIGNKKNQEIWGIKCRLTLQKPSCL
UniProt P18754: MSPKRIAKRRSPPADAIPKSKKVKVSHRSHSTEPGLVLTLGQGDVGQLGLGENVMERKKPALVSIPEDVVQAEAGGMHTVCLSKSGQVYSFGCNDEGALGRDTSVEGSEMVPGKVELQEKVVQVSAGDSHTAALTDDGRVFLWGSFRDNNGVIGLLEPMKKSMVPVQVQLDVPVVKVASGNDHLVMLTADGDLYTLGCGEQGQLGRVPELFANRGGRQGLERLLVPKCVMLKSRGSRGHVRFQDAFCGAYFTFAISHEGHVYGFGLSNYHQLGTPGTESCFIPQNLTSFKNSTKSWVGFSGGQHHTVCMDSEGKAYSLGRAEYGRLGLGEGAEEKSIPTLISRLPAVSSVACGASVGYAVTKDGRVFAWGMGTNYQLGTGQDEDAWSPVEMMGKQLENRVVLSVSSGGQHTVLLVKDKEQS

binding: binds
Substance: Flag-RCC1 (from UniProt P18754 1-421)

— publication PMC10985091
